Source: article PMC4466666
Results are given in words; binding and its absence hold for the method and conditions named. Binding seen in cells or lysates may run through a third protein. Some binding calls cover weakened binding; strength is not graded here.

Chains of the proteins cited; added tags and fusions are not shown. Lines headed by an entry give the natural chain unless they say otherwise; changes in a name come on top.
UniProt P78527: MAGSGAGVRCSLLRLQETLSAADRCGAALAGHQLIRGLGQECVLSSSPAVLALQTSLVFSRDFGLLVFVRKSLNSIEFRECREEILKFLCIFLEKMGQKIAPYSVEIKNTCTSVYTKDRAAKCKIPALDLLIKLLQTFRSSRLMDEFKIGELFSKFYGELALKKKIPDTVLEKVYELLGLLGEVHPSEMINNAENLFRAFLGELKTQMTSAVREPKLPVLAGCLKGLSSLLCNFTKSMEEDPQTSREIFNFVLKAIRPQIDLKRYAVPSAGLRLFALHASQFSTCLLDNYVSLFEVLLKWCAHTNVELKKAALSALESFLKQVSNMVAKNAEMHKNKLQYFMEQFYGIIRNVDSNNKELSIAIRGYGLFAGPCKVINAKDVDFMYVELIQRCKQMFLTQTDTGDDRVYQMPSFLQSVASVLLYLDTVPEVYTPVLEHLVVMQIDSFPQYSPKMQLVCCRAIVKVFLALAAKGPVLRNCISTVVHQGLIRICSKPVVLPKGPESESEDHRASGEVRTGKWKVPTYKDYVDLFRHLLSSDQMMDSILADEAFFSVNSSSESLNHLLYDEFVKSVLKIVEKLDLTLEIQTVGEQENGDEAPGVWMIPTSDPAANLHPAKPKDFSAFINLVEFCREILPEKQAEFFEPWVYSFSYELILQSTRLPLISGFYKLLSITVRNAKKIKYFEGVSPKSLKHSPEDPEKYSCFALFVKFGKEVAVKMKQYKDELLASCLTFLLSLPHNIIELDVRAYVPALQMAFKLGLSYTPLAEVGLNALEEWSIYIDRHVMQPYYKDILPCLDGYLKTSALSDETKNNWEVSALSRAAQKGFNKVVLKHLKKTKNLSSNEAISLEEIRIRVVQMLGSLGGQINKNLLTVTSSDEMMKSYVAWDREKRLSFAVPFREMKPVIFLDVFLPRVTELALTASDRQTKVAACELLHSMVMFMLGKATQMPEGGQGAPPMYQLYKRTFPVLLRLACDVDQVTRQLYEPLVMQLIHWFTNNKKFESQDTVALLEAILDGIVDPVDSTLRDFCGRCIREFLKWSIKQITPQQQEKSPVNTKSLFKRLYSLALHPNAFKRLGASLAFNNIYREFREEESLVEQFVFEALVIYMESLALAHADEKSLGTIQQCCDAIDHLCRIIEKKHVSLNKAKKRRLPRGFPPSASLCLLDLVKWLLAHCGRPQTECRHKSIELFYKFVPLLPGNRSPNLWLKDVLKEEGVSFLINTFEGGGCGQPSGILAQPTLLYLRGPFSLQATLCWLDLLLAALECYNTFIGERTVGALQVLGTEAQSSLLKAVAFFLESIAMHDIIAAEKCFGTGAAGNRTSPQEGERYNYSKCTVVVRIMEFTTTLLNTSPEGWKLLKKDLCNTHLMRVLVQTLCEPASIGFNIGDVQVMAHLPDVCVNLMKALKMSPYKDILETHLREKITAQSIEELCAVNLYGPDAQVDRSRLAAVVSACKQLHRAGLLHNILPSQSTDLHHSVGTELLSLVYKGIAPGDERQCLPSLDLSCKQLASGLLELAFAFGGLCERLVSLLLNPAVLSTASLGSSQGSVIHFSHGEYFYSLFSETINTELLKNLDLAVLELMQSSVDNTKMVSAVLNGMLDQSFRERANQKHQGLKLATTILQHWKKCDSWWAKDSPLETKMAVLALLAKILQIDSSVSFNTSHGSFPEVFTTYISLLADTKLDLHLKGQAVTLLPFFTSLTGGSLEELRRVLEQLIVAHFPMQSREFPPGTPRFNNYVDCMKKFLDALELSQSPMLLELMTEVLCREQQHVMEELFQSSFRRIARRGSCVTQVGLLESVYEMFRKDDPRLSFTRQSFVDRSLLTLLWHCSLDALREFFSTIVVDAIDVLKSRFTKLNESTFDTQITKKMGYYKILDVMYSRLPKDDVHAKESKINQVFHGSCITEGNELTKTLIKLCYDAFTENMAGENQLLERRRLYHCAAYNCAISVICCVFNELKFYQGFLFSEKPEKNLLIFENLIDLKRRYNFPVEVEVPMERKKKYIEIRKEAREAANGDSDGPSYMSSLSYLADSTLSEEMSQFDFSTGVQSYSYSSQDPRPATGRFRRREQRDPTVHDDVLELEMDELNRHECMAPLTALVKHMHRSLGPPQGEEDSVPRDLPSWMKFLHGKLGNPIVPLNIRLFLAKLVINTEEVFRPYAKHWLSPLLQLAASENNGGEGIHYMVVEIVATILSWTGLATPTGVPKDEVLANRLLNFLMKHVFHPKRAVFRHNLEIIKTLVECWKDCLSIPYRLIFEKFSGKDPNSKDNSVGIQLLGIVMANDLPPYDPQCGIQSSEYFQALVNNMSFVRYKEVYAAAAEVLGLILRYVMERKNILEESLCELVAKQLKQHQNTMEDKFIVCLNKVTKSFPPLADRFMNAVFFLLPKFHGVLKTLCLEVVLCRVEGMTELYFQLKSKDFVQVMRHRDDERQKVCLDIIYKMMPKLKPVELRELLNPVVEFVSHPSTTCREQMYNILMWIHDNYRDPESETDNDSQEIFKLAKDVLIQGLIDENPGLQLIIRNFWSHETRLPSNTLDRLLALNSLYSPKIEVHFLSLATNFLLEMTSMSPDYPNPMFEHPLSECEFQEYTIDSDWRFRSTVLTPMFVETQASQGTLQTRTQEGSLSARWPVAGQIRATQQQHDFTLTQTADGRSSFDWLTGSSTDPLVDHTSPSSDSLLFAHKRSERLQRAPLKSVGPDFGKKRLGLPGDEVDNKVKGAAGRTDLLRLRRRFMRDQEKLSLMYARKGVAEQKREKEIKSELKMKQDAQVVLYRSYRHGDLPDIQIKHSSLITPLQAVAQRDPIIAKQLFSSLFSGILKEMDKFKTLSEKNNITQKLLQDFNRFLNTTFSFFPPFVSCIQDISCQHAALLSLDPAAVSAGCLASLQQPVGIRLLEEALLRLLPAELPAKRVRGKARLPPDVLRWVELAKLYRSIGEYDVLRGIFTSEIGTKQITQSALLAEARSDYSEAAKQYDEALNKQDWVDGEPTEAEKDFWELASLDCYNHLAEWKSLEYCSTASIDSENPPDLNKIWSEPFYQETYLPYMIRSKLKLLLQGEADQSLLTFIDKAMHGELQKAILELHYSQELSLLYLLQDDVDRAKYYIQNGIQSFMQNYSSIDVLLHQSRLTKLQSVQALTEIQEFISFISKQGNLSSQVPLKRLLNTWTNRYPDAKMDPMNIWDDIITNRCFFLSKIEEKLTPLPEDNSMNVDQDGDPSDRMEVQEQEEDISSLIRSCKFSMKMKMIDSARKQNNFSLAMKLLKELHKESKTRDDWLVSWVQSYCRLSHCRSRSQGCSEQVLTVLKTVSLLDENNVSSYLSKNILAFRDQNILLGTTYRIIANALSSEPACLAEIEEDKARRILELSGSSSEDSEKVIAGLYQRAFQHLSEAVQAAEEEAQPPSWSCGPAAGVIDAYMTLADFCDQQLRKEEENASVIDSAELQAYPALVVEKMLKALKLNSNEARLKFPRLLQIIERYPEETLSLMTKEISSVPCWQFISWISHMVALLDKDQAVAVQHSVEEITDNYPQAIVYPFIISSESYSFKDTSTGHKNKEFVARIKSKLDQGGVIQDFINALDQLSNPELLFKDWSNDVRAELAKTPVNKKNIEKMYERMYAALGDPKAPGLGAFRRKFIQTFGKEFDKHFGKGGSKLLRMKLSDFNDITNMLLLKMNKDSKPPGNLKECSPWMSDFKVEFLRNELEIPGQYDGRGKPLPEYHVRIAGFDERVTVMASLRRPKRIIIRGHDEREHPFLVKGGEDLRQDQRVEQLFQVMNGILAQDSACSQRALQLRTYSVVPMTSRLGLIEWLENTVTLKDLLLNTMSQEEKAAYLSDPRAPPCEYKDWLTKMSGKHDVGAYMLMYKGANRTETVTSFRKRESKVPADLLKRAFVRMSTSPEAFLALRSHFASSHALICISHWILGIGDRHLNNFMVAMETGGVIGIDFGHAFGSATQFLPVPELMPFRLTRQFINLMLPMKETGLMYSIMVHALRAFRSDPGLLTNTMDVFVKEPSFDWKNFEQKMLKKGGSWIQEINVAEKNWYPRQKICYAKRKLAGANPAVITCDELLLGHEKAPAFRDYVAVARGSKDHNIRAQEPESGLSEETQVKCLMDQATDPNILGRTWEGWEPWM
UniProt P09874: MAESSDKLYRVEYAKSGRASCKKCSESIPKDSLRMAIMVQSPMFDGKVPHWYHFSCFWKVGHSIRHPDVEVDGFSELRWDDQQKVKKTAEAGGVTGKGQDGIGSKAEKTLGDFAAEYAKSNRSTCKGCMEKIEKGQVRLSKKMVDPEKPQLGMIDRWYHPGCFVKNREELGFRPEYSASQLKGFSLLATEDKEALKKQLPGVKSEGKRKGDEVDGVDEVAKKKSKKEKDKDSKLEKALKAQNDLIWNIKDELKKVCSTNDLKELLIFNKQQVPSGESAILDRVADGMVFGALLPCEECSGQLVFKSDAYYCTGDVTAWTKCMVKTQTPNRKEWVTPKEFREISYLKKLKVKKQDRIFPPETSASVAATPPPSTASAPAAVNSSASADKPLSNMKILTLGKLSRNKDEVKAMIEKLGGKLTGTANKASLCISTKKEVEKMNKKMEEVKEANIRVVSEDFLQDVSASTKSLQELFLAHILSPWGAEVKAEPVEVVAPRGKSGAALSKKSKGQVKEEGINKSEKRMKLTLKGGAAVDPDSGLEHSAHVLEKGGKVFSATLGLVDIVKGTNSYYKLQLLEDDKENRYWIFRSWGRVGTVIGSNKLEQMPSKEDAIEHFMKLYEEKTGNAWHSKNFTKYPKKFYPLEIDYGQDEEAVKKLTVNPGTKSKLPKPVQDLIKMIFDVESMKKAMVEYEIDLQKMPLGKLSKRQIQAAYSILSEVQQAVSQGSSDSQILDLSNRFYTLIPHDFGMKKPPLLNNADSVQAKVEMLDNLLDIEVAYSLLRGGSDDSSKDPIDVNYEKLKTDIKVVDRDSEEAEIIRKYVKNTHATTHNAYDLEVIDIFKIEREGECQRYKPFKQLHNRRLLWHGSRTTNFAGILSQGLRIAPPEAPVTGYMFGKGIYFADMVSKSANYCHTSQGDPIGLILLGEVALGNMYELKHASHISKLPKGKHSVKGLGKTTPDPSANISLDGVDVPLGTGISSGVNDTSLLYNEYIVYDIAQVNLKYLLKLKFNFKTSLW
UniProt P12956: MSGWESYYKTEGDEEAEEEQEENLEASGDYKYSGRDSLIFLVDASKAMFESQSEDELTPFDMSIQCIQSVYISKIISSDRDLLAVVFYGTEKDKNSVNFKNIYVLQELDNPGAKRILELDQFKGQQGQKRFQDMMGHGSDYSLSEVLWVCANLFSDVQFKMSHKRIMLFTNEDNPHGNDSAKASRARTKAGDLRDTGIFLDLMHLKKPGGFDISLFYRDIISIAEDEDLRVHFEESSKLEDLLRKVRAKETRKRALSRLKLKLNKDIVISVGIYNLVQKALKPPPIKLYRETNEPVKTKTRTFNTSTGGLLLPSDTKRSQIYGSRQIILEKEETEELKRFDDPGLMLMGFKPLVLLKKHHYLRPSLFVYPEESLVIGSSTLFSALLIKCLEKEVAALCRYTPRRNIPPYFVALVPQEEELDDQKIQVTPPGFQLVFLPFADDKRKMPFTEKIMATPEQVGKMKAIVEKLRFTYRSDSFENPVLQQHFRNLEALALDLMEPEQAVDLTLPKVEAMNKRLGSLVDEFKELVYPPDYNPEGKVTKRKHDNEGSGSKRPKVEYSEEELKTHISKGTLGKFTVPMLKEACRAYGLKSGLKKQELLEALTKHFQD

Assays:
Assay in all cases: co-IP; HeLa cell lysates in NTEN buffer (100 mM NaCl, 20 mM Tris-Cl pH 8.0, 0.5 mM EDTA, 0.5% NP-40); 2 ug primary antibody for 12 h at 4°C, protein A/G agarose for 4 h at 4°C, 4 washes, western blot; IgG control; cells transfected with myc-tagged TNKS1BP1; the DNA-PKcs IP was also done from HeLa-NC, HeLa-shTNKS1BP1 (knock-down) and HeLa-mycTNKS1BP1 (overexpression) cells
[1] = molecular target: tankyrase 1 binding protein 1 of 182 kDa (TNKS1BP1), myc-tagged (UniProt Q9C0C2)
[2] = molecular target: DNA dependent protein kinase catalytic subunit (DNA-PKcs) (human (endogenous in HeLa)) (UniProt P78527)
[3] = molecular target: poly(ADP-ribose) polymerase 1 (PARP-1) (human (endogenous in HeLa)) (UniProt P09874)

binding [1] | binding [2] | binding [3] | Substance
binds | – | – | DNA dependent protein kinase catalytic subunit (DNA-PKcs) (from UniProt P78527 1-4128)
– | binds | binds | tankyrase 1 binding protein 1 of 182 kDa (TNKS1BP1), myc-tagged (from UniProt Q9C0C2 1-1729)
binds | – | – | poly(ADP-ribose) polymerase 1 (PARP-1) (from UniProt P09874 1-1014)
binds | – | – | Ku70/Ku80 heterodimer (from UniProt P12956 1-609; P13010 1-732) (complex)
